From article PMC7907060 (Scientific Reports, 2021)

Protein sequences, listed by entry. Tags and fused reporters are not part of them. Lines headed by an entry give the natural chain unless they say otherwise; changes in a name come on top.
UniProt C0H4E4: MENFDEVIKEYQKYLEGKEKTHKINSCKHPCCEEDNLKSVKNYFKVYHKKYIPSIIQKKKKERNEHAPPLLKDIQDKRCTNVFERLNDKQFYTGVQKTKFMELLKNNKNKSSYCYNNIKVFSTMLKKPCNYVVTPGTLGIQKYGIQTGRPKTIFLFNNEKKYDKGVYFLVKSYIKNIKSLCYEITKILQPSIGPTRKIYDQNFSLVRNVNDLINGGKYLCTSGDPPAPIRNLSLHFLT

Molecular target: T1, PfApicortin (Plasmodium falciparum, UniProt C0H4E4)
T1 construct: gene DCX
Assay: biochemical

Which Kd does the source give for `CC/C(=C(\c1ccccc1)c1ccc(OCCN(C)C)cc1)c1ccccc1` [TMX, Tamoxifen] here?
The Kd was 3.7 µM.
